The source of these data is US6414113B1, “Peptides binding to bone marrow stromal cell antigen” (Biomolecular Engineering Research Institute, priority 1998, dated 2002).

Protein sequences, listed by entry. Tags and fused reporters are not part of them. Lines headed by an entry give the natural chain unless they say otherwise; changes in a name come on top.
UniProt Q10588: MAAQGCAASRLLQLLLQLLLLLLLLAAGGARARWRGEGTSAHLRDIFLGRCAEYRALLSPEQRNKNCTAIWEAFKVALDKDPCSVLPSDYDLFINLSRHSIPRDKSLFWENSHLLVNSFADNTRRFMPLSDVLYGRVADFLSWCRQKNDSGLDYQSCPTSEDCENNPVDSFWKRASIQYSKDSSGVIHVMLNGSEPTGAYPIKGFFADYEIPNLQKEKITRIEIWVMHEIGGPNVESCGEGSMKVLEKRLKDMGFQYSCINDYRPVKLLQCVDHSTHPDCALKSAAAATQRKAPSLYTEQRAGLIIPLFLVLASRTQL

The target of test [1] is soluble human bone marrow stromal cell antigen-1 (BST-1) (human) (UniProt Q10588). Briefly: Biacore SPR, legend of FIG. 6. Background: SPR reads the build-up and loss of mass on a sensor chip optically.
For test [2] the target is unchanged. Briefly: affinity chromatography, SDS-PAGE with silver staining, legend of FIG. 8.
The target is the same in test [3]. Briefly: affinity chromatography, SNPb-1 on avidin-agarose, elution with 1.0 M NaCl.
The target is the same in test [4]. Briefly: phage ELISA, BST-1 captured by antibody BEC7. (In an ELISA, binding on a coated surface is turned into a signal by an enzyme label.)

These are yes or no findings as the source states them, for the method shown. A result given as binding can be weak or reduced; the word gives no strength.

B1: bSNP-1 (SNP-1 biotinylated at the N-terminal) (peptide)
peptide: HSQISGKYQRYLKDA
modifications: amino group of the N-terminal bound with Sulfo-NHS-LC-Biotin
On to B1, for which the binding result in test [1] is on record as “binds”.

B2: SNPb-1 (SNP-1 with an additional C-terminal Lys carrying biotin) (peptide)
peptide: HSQISGKYQRYLKDAK
modifications: biotin bound to the amino group of the added C-terminal Lys
For B2, the binding result in test [1], in test [2] and in test [3] was “binds” throughout.

B3: phage SN-1 (phage expressing the peptide defined by SEQ ID NO: 1) (peptide)
peptide: HSQISGKYQRYLKDA
notes: not shown: phage coat protein of the Fuse 5 vector to which the peptide is fused; not specified
As for B3, in test [4], the binding result is given as “binds”.
